Experimental data from article PMC3991325.
Results are given in words; binding and its absence hold for the method and conditions named. In cells and extracts the contact can be indirect. Here binding means that the protein was enriched with, or labelled near, the bait; the list need not be complete.

Target: T1, Rrp5-HTP (budding yeast), Q05022
T1 chain: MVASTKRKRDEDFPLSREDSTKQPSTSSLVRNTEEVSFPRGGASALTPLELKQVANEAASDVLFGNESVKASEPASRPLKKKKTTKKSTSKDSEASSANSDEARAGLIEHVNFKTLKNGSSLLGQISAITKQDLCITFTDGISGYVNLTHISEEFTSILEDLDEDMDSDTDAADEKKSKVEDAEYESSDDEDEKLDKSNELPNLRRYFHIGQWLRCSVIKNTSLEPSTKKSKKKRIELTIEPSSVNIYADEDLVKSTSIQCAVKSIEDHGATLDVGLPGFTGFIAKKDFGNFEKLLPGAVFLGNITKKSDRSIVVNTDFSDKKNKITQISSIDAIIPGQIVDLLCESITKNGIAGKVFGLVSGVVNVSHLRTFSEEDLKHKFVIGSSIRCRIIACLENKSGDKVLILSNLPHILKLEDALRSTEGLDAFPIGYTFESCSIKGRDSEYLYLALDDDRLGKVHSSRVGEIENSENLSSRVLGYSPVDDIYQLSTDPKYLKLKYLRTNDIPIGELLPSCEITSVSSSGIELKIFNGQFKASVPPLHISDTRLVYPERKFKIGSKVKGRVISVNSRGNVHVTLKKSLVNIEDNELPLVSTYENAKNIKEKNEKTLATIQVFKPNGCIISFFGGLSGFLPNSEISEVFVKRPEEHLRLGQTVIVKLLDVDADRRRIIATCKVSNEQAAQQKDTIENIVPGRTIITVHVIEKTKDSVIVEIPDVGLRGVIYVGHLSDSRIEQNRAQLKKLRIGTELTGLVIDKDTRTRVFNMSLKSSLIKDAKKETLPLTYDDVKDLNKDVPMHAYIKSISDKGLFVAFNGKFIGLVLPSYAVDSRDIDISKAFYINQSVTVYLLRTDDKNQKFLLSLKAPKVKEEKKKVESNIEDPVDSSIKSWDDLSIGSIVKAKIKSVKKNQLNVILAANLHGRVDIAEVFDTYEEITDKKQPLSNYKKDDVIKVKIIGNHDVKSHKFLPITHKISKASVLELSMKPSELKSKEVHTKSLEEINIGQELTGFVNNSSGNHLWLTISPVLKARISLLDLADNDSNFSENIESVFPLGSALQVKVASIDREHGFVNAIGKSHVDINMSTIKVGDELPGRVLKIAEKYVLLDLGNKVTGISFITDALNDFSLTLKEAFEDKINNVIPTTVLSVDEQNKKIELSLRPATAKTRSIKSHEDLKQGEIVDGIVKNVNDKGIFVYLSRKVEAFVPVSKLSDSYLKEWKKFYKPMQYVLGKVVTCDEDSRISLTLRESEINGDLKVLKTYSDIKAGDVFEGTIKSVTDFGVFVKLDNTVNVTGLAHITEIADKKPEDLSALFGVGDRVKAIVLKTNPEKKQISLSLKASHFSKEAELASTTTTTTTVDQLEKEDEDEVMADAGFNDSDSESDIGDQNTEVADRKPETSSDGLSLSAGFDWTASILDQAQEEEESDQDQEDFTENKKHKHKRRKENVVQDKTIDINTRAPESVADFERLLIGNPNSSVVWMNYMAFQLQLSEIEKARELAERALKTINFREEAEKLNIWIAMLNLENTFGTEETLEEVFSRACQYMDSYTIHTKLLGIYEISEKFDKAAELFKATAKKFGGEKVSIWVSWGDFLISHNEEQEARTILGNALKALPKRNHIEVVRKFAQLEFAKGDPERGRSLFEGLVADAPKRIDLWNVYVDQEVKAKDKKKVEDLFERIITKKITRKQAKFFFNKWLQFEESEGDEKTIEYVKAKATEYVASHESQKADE
Experiment: affinity purification with mass spectrometry; Rrp5-HTP bound to an IgG column, RNase treatment, brief formaldehyde crosslinking on the column, washing under denaturing conditions (8 M urea), release by brief decrosslinking and SDS; the material migrating above Rrp5 in SDS-PAGE analysed by mass spectrometry; Brr2 as control bait
Conditions: remark: other sources report otherwise

B1: Rix1, P38883 1-763 (protein)
chain: MSEEFIAVSTLARNLEIAKGNEFHTILATLRSPVYINEQLLKSELSFLVTKILKLIRSGNDFDLWKGCHTSVVTCAYNPLVLSTHGGQLLAAIYSRLEQKTGFYSSVISSSHGKQLFNTLISSVAIIIDLMKNKPTLSREALVPKLKAIIPTLITLSQYEPELVLPVLQRILKRNTTTFKPFTNKFRTVLINLIISDYASLGTKTQRLVCENFAYLHLLKIQVSDTSDDETQAHHKIYADSNWRTGLMSILSQFKPIIQLCGEILDFEQDNELYKLIKSLPVIDESNNKEEFLPSLKLDFNAPLTLWEIPQRLSLLADMLVAFISLPTPFPIRVPLGGINSLCEVLLGVSNKYLPLKKELRHDNELNGVINTILPQIQFQGIRLWEIMVSKYGKCGLSFFEGILSSIELFIPLKKKSNNEIDFNVVGSLKFEFATVFRLVNMILSHLGHQLNIISVISQLIEVALFLSHDKTLIDSLFKNRKSIMKQQTKTKQSKRSKSAEGAFSDIYTHPELFVCKNSMNWFNEINDFFITALNNWILPSTPHIQILKYSITQSLRLKERFGYIPESFVNLLRCEVLHPGSERVSILPIAISLLKNINDDMFELLCHPKVPVGMVYQLHKPLDLGEDGEVRDDINKKEVETNESSSNANTGLETLKALENLENVTIPEPKHEVPKVVDDTAIFKKRSVEEVIERESTSSHKKVKFVEETTVDNGEELIVKKAVSQTKEEEKPMEDSEDEEQEEFEIPAIELSDDEEEEEEEE
binding: binds
